Some of these results come from one statement about several compounds together.
Experiments:
Format in all cases: in vivo
[1] = system: Bemisia tabaci (cotton white fly); experiment: Activity against Bemisia tabaci (feeding/residual contact activity, preventive); settings: 200 ppm; cotton leaf discs sprayed, adults; mortality and special effects 6 days after infestation
[2] = system: Spodoptera littoralis (Egyptian cotton leafworm); experiment: Activity against Spodoptera littoralis (larvicide, feeding/residual contact activity, preventive); settings: 200 ppm; cotton leaf discs sprayed, L1 larvae; mortality, repellent effect, feeding behaviour, growth regulation 3 days after treatment
[3] = system: Tetranychus urticae (two-spotted spider mite); experiment: Activity against Tetranychus urticae (mixed population, feeding/contact activity, preventive); settings: 200 ppm; bean leaf discs sprayed, mites of mixed ages; egg, larval and adult mortality 8 days later

Compound	activity [1]	activity [2]	activity [3]
C/C(=N\Oc1nc(C)cc(C)n1)c1sc(-c2cccnc2)nc1Cl [Compound 1.057]	over 80%	–	–
C/C(=N\Oc1ncc(Cl)c(Cl)n1)c1sc(-c2cccnc2)nc1C [Compound 1.042]	–	over 80%	–
C/C(=N\Oc1ncccn1)c1cnc(-c2cccnc2)s1 [Compound 1.041, 1-[2-(3-pyridyl)thiazol-5-yl]-N-pyrimidin-2-yloxy-ethanimine]	over 80%	–	–
C/C(=N\Oc1ncc(F)cn1)c1sc(-c2cccnc2)nc1C [Compound 1.016]	over 80%	–	–
C/C(=N\Oc1cc(Cl)cnc1Cl)c1sc(-c2cccnc2)nc1C [Compound 1.008]	–	over 80%	over 80%
COc1cc(OC)nc(O/N=C(/c2sc(-c3cccnc3)nc2Cl)C2CC2)n1 [Compound 1.046]	over 80%	–	–
COc1cnc(O/N=C(\C)c2sc(-c3cccnc3)nc2C)nc1 [Compound 1.014]	over 80%	–	–
CSc1nc(Cl)cc(O/N=C(\C)c2sc(-c3cccnc3)nc2C)n1 [Compound 1.053]	over 80%	–	–
C/C(=N\Oc1ncccc1C#N)c1sc(-c2cccnc2)nc1C [Compound 1.011]	–	–	over 80%

From US9060519B2, “Insecticidally active pyridyl-thiazole and pyridyl-thiadiazole derivatives” (Syngenta Participations AG, priority 2011, dated 2015)
